We go through 104 sequences from PubChem BioAssay AID1347423 (Functional Genomics Laboratory (NCATS/FGL), 2020).

Out of some 52,000 sequences screened, about 210 (0.4%) were called active.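 Rule for the calls: active = gene whose silencing raises cell survival under the drug, median off-target-corrected z-score across its silencing RNAs 2 or more; inactive = the rest.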 The list shows a part of the results.

This experiment in a line: Resistance to Poly (ADP-Ribose) Polymerase inhibitor: Gene Identification via Genome-wide siRNA Screen. As to conditions: mouse BRCA2 R2336H ES cells, olaparib, CellTiter-Glo viability; stronger effect = higher value. The procedure, abridged:
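Genome-wide siRNA screen (3 siRNAs/gene, 20 nM) in mouse ES cells carrying hypomorphic BRCA2 R2336H; olaparib 500 nM added 48 h post-transfection, CellTiter-Glo viability 72 h later. Normalized to plate-median negative control; MAD z-scores, gene median, seed-adjusted.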
For GGAGGAAGAGAAGUACAUUTT against Khdrbs3, the z-score was inactive: 2.5.
The figure for GGUCAGAGAACUCUCUACATT against Zfp68 is inactive: -1.04.
Take GCUCUAUGUACGCGUUAGATT against Col18a1: the z-score is inactive: 0.705.
With CCUGCCAACUACGAAUGAATT against Stx8 the figure was inactive: 1.19; with GCGCAGAGAGAAAUAUCCCTT against Map4k1, inactive: 1.25; with “CCGAGUGUAAACUUCAAAUTT against B130052G07Rik”, inactive: 0.11.
As for GCCUAGUUCUUUAUGCUAUTT against Golga4, the z-score is inactive: 1.97.
Take GGGCAGUAAGGACAGUUUUTT against Oaz1: the z-score was inactive: -1.02.
Consider AGUCUUCACGUUUCAUUUATT against Olfr1195, for which the z-score was inactive: 0.623.
The figure for CGACAUGACCAAGAACGAUTT against Zyx is inactive: -1.65; for GCUCAUGACACUCUUCCUGTT against Spib it is inactive: -0.26; for GCCUGACUAGAAAUAAAAATT against Pde4c it is inactive: -0.715.
With GGAGUUGGAGAAUGACACGTT against Tg737Rpw the figure was inactive: 1.42.
With GGGCACUUCUUCAAUGUAUTT against Arl6ip6 the figure was inactive: 0.992.
With GCAUAAUAGCGCAAGCUACTT against Ifi47, the z-score was inactive: 0.685.
The figure for GGAUGAAGAUGUGGAUCUGTT against Wdr23 is inactive: -0.965.
On to GGGACACCAAGUUUUCCAUTT against Mpra, for which the z-score is inactive: 0.167.
With GCUUAGGUAAUUUCAAGGUTT against Ppp1r15b the figure was inactive: 0.275; with GGGUCUGGAAUCCAUCCGUTT against Lin28, inactive: 0.716.
The figure for GCUAUGUUAUCACCACCAATT against Kcnab3 is inactive: 0.354; for “GGACCUAAUAAAUUAAGCCTT against 2500001H09Rik” it is inactive: -0.151; for “GGUGCAGGACCAUUUCCAUTT against 8430417G17Rik” it is inactive: 0.553.
With CCAGCAAAUGGAUAACUUGTT against Epas1 the figure was inactive: -0.106; with “CCUAGAUUAAAUACUCGGATT against D030069K18”, inactive: -1.17; with “GGCUCCUAGCUGUUUCAGUTT against 4921522K05Rik”, inactive: -0.953.
As to GGAAUAUGAAGAAGAAUUGTT against Adam7, the z-score is inactive: -0.56.
The figure for “GCGGAACAUCUUAGCUUAATT against 2310042D19Rik” is inactive: -0.914; for “GGCUUUAUGACAUCAUUUGTT against 1110008F13Rik” it is inactive: 1.07; for GGGCAAGCAGUUCAUUCUGTT against Nr2c1 it is inactive: 0.609.
With CCGGGAGCUACAAAAACUUTT against Ppp2r5d the figure was inactive: 0.926; with “GGAUUUUCCAUUUCUUCACTT against D2Ertd435e”, inactive: -0.433.
The figure for GGGAUACAGAUUUUGUUUATT against Olfr1261 is inactive: 0.642; for GGCUGUUGUACUACACCAATT against Olfr629 it is inactive: -0.26; for GCUGACUUGCACAUUCGAUTT against Mpzl1 it is inactive: 0.657.
Turning to GGAGUUGACCACACUGCUUTT against Smtn, the z-score is inactive: -1.07.
With GCAACGAGCAAAAAGCAUGTT against Htr2a the figure was inactive: 2.35.
The figure for CGUAGAGUUAAUUACACAATT against Gria4 is inactive: -0.185; for “CCGUGGUAUCAAUGAUUGGTT against 1110011D13Rik” it is inactive: 1.94.
With “CGUGAUUGAAUCUCAGGAGTT against 5133400G04Rik” the figure was inactive: -0.0981; with CGAACCCUAGCGGAAAUUGTT against Nono, inactive: 0.303; with GGCACGUAUCAGUGUCAAGTT against Cd3g, inactive: -0.0516.
Consider UUAUCCCGUGCAAAUGAAGTT against Akr1c19, for which the z-score is inactive: -2.26.
The figure for GGAUUUCUACUCUAAGCUGTT against Setdb1 is inactive: -0.787; for GCGAAGUUAAAUCUCAUCATT against Mtl5 it is inactive: 2.64.
The figure for “GCACAUGACCAACAAUACCTT against 4932438A13Rik” is inactive: 0.618; for GGAAGACUUUGAAUACCACTT against Slc4a2 it is inactive: -0.313; for GGACUGUUUCCUAUCCACUTT against V2R2 it is inactive: -0.142.
The figure for “GGCAAAGACCCAAGAAGUGTT against 1700029H14Rik” is inactive: -0.421; for GGACCAGGAACAGUUCGAATT against Rela it is inactive: -0.247.
CCAUGUAUAUCUCAUAGCATT against Rnf26: the z-score is inactive: 0.464.
With GGUCGUAUUGCGCUAUAGCTT against Lnk the figure was inactive: 0.685; with GCCUGUUCGGGAAUCUUACTT against Olfr297, inactive: -0.396; with GGAACUUCCCUAUAGUGAATT against Hdac3, inactive: 0.222.
With GGAGAAGAAGAUUUUCCAGTT against Irf2 the figure was inactive: -0.436; with GGUUCAACUUCACACUGAGTT against BC024814, inactive: 1.12.
The figure for GGUGUUUAAAGAUUUCGUUTT against Dhrs2 is inactive: 0.996; for GCUGGUUUCAUCCGCCAUATT against Dvl3 it is inactive: 1.13.
For the sequence “GGGUUUCUUGUUGGUUUUATT against E130320D18”, the z-score is inactive: 2.88.
The figure for GGUCACAUUUUGUGAUUUUTT against Tmem30b is inactive: 2.24; for GGAGUACCUAUUUGUCAUCTT against Cnga2 it is inactive: 0.21; for GGCACUGUUCGGCAAGAAGTT against Trappc5 it is inactive: -0.765.
With CGACAUCUCCCUAGACAAGTT against Itm2c the figure was inactive: -1.82.
In the case of CCGUGACAGUCAUGUUGAUTT against Amt, the z-score is inactive: -1.5.
With GGAGAAAGUCAAGAUCAAATT against Gpr4 the figure was inactive: -0.894; with GGACAGAGUGAAACUUUAUTT against Pcdhga9, inactive: -0.77; with CCUUCGGAUACUACUUUUCTT against Olfr531, inactive: 1.42.
As to CGCUGGUACCUGAAAUAUUTT against Rnf123, the z-score was inactive: -0.974.
For the sequence GGCCAGUCUUAUGAAAUUCTT against Ubp1, the z-score is inactive: -0.113.
With CCUGUUUGUACAUCCUUGGTT against Olfr748 the figure was inactive: -1.13; with GCCUCAUGUCUACUCGCUUTT against Gpr66, inactive: 0.477; with GGCCUACGAUAUUUCACAATT against Oosp1, inactive: 0.449.
The figure for GGCCCACAAGGCUGUUUUGTT against Zfp131 is inactive: -0.809.
Consider GGAAGAGAUUUCUAAACUUTT against Mcoln2, for which the z-score was inactive: 0.459.
With “GCCUUUGAGCUCAUCUAUATT against 4833441J24Rik” the figure was inactive: -0.0621; with GGAAUAUAGCGACAUCAUATT against Apba2, inactive: 0.113; with GGUUGAUCUAAAUGAAAUGTT against Idi1, inactive: -0.641.
With “CCUGCUAAAGGAAUGUCACTT against 2310061C15Rik” the figure was inactive: 0.497; with GCAACACAUUCCUUAUGAUTT against Entpd6, inactive: -0.185; with GGAGAAAAACUGAGCAGCCTT against Chst12, inactive: 0.672.
For GGUGUCUGCGUGAAGAUCATT against Cacng8, the z-score is inactive: 0.491.
The figure for GGGCAUGUUUGCCACCAGUTT against Gpam is inactive: -0.294; for GGACCACUGACAUUUUUCATT against Tagln3 it is inactive: 0.352.
With GGCCAUUCCAGCUCUGAAATT against Isl2 the figure was inactive: -0.777.
The figure for GGAUUUACCACCAAUUAAATT against Vars2 is inactive: -1.59.
As for GGCACAGCUGGAUGAAGAATT against Gucy1b3, the z-score was inactive: 0.919.
Take CCUCGUUAUCCUCAUGGGATT against Akp5: the z-score was inactive: 0.496.
With GCUCUUAUCAGCAUGUAUATT against Birc6 the figure was inactive: -0.773.
Turning to GGAAUCAAAGAUGGAGAGGTT against Galnt3, the z-score is inactive: 0.474.
With “GGCCAUGAGGAAAACAAGATT against 0610011B16Rik” the figure was inactive: -0.121.
With GGAGAAUUUGACUUUAAUGTT against Eif4enif1 the figure was inactive: -0.293; with “CCCAAGCUCGGCUAUCGUATT against 4432406C08Rik”, inactive: 0.312.
The figure for “GGACAACCACUUUAAGCUUTT against 2610024N01Rik” is inactive: 0.185; for GCUCUGCUAGUCAACUGCATT against Nrip2 it is inactive: 0.681.
As for CCAAGGUUUGUCAUCUAAGTT against Limk2, the z-score is inactive: -0.507.
Consider AGGAGCUUUGCUUAGCACUTT against MGC67311, for which the z-score was inactive: -0.484.
As for GGAAAUCAGCUCAUAAAGUTT against Tcf19, the z-score is inactive: -0.0299.
Take GGAGGAUACAGUGGAGGGATT against Fbxl19: the z-score is inactive: 0.883.
The figure for GGAAGUAGGCAGCAUCAUCTT against Pcbp1 is inactive: -0.718; for “GCCUGUUACGUCAUCAAGATT against 1810036H07Rik” it is inactive: 0.96.
The figure for GCUGGUCUAUGUGGAAAGGTT against Brap is inactive: -1.42.
With GCAGUUUGUAUUUGACCUATT against Txndc4 the figure was inactive: 0.902; with AACCUUGCCGUUCUAGACATT against Olfr1423, inactive: 0.72.
Consider “GCUAUGUGAAUUUGUAUGATT against 5330431N24Rik”, for which the z-score is inactive: 1.47.
For the sequence GCAGGUGGUACGCAGACUATT against Ulk1, the z-score is inactive: -1.82.
